Data published in PubChem BioAssay (NCATS).
This list was built around the results that the source calls inconclusive (neither active nor inactive); the mix of calls is not that of the screen. Potencies beside an inconclusive call are fits to weak or partial responses and may not hold up. The source made the active and inactive calls. Unless noted, the call rests on the fitted dose curve.

Experiment: Quantitative High-Throughput drug screen in 47 multiple myeloma cell lines against the NCATS MIPE library collection: KMS28BM_JCRB cell viability assay (AID 1919874; active means well fitted cell-killing curve with a large enough effect; inconclusive means small, poorly fitted or top-dose-only effect, or effect the other way; inactive means no such curve, though single readings can be large or run the other way; further: nearly all actives have a fitted effect of over 35% in size)
Conditions: CellTiter-Glo ATP, 48 h; series mostly up to 45.8 µM; viability, % of control: at the top concentration
Method in brief: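 Inhibition of viability over 48 h was scored by ATP content (CellTiter-Glo) in 500-cell wells. Zero and full viability were defined by media-only and DMSO-only wells.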
Potency means the concentration at half of the fitted maximal effect.

Structure (SMILES) | viability, % of control | Potency
O=C(Nc1ccccc1)Nc1ccc(-c2ccc(C(=O)[C@H]3CCC[C@H]3C(=O)O)cc2)cc1 | inactive: 111% | –
CC(C)(C)Cn1c(N)nc2ccc(-c3[nH]c(C(C)(C)C)nc3-c3ccc(F)cc3)nc21 | – | inconclusive: 8.33 µM [cytotoxic, partial curve, poor fit]
COc1ccc(-c2oc3cc(OC)ccc3c2C(=O)c2ccc(C#N)cc2)cc1 | – | inconclusive: 20.9 µM [cytotoxic, single point]
OC(CN1CCC(Cc2ccc(F)cc2)CC1)c1ccc(Cl)cc1 (configuration not stated) | – | inconclusive: 0.0296 µM [cytotoxic, full curve, poor fit]
Cc1ccc(C(=O)Nc2cccc(C(F)(F)F)c2)cc1Nc1nc(-c2cccnc2)nc2c1cnn2C | – | inconclusive: 4.18 µM [cytotoxic, full curve, poor fit]
O=C1CCCC2=C1C(c1[nH]ncc1Cl)N=C(Nc1nc3ccccc3o1)N2 (configuration not stated) | – | inconclusive: 33.2 µM [cytotoxic, single point]
CC(O)=C(C#N)C(=O)Nc1ccc(C(F)(F)F)cc1 | – | inconclusive: 6.62 µM [cytotoxic, partial curve, poor fit]

Experiment: qHTS for identification of novel therapeutic agents for treatment of microphthalmiaassociated transcription factor (MiT) renal cell carcinoma (RCC) (AID 1963991)
Conditions: TFE3-RCC UOK109 viability, CellTiter-Glo, 48 h; active = Z-AUC below -0.8 in all three lines
Method in brief: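 Curves over 11 concentrations were fitted to CellTiter-Glo luminescence, scaled between empty wells (0%) and DMSO (100%) viability. Cells were UOK109, UOK124 and UOK145 TFE3-fusion RCC lines at 500/well, exposed 48 hours at 37 C.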

Structure (SMILES) | Potency
O=C(O)c1cccc(-c2noc(-c3ccccc3F)n2)c1 | inconclusive: 23.5 µM [falling, partial curve, poor fit]
C=CC(=O)Nc1cccc(Sc2nc(Nc3ccc(N4CCN(C)CC4)cc3)ncc2Cl)c1 | inconclusive: 1.05 µM [falling, partial curve, poor fit]
NC(CO)(CO)CCc1ccc(Sc2cccc(OCc3ccccc3)c2)cc1Cl | inconclusive: 20.9 µM [falling, partial curve]
CCCCc1oc2ccccc2c1C(=O)c1cc(I)c(OCCN(CC)CC)c(I)c1 | inconclusive: 3.32 µM [falling, full curve]
C=C1C(=O)[C@@]23C(CC[C@@H]1[C@H]2O)[C@@]12CO[C@]3(O)[C@@H](O)[C@@H]1C(C)(C)CC[C@@H]2O (some centres not stated) | inconclusive: 18.7 µM [falling, partial curve]
Cc1nc(NC(=O)N2CCC[C@@H]2C(N)=O)sc1-c1ccnc(C(C)(C)C(F)(F)F)c1 | inconclusive: 6.62 µM [falling, partial curve]
O=C1NC(=O)C(c2ccccc2[N+](=O)[O-])=C1Nc1ccc(O)c(Cl)c1 | inconclusive: 1.66 µM [falling, full curve]
CCCCCCCCOc1ccccc1C(=O)Nc1ccc(C(=O)OCC[N+](C)(CC)CC)cc1 | inconclusive: 0.372 µM
Cc1c(NC(=O)c2ccc(C(C)(C)C)cc2)cccc1-c1cn(C)c(=O)c(Nc2ccc(C(=O)N3CCOCC3)cc2)n1 | inconclusive: 14.8 µM [falling, partial curve]
Cc1oncc1C(=O)Nc1ccc(C(F)(F)F)cc1 | inconclusive: 6.62 µM
COc1cc2c(cc1OC)CN(CCc1ccc(NC(=O)c3cc(OC)c(OC)cc3NC(=O)c3cnc4ccccc4c3)cc1)CC2 | inconclusive: 16.6 µM [falling, partial curve]
CC(C)OC(=O)CCCC=CC[C@@H]1[C@H](C=C[C@@H](O)COc2cccc(C(F)(F)F)c2)[C@H](O)C[C@@H]1O | inconclusive: 8.33 µM
O=C1NC(=O)C(=Cc2ccc(-c3ccc(F)cc3)o2)S1 | inconclusive: 1.48 µM
C[C@H](NC(=O)[C@@H](O)c1cc(F)cc(F)c1)C(=O)N[C@@H]1C(=O)N(C)c2ccccc2-c2ccccc21 | inconclusive: 13.2 µM [falling, partial curve, poor fit]
O=C(Nc1ccccc1)Nc1ccc(-c2ccc(C(=O)[C@H]3CCC[C@H]3C(=O)O)cc2)cc1 | inconclusive: 3.72 µM [falling, partial curve, poor fit]
CO[C@H]1C=CC=C(C)C(=O)NC2=CC(=O)C(NCCN(C)C)=C(C[C@@H](C)C[C@H](OC)[C@@H](O)[C@@H](C)C=C(C)[C@@H]1OC(N)=O)C2=O | active: 2.64 µM
CN(C)c1ccc2nc3ccc(=[N+](C)C)cc-3sc2c1 | inconclusive: 3.72 µM [falling, full curve]
O=C(NOCC1CC1)c1ccc(F)c(F)c1Nc1ccc(I)cc1Cl | inconclusive: 7.43 µM [falling, partial curve]
CC(C)(C)Cn1c(N)nc2ccc(-c3[nH]c(C(C)(C)C)nc3-c3ccc(F)cc3)nc21 | inconclusive: 0.833 µM [falling, full curve]
Cc1ccc(F)c(NC(=O)Nc2ccc(-c3cccc4[nH]nc(N)c34)cc2)c1 | inconclusive: 29.6 µM [falling, single point]
COc1ccc(-c2oc3cc(OC)ccc3c2C(=O)c2ccc(C#N)cc2)cc1 | inconclusive: 9.35 µM [falling, full curve]
Cc1ccc(C(=O)Nc2cccc(C(F)(F)F)c2)cc1Nc1nc(-c2cccnc2)nc2c1cnn2C | inconclusive: 16.6 µM [falling, partial curve]
CC(C)C[C@@H](C(=O)N[C@H](C(=O)OC1CCCC1)c1ccccc1)[C@H](O)C(=O)NO | inconclusive: 18.7 µM [falling, partial curve]
O=C1CCCC2=C1C(c1[nH]ncc1Cl)N=C(Nc1nc3ccccc3o1)N2 (configuration not stated) | inconclusive: 20.9 µM [falling, partial curve, poor fit]
CON=C(C(=O)N[C@@H]1C(=O)N2C(C(=O)OCOC(=O)C(C)(C)C)=C(C=Cc3scnc3C)CS[C@H]12)c1csc(N)n1 | inconclusive: 0.00264 µM
Cc1ccc2nc(NCCN)c3ncc(C)n3c2c1 | inconclusive: 3.72 µM [falling, full curve]
O=C(NCC1CCCCN1)c1cc(OCC(F)(F)F)ccc1OCC(F)(F)F (configuration not stated) | inconclusive: 5.26 µM [falling, full curve]
CC(O)=C(C#N)C(=O)Nc1ccc(C(F)(F)F)cc1 | inconclusive: 20.9 µM [falling, partial curve, poor fit]
CNS(=O)(=O)CCc1ccc2[nH]cc(C3CCN(C)CC3)c2c1 | inconclusive: 0.332 µM [falling, partial curve]
Nc1nccc(Oc2ccc(NC(=O)c3c[nH]cc(-c4ccc(F)cc4)c3=O)cc2F)c1Cl | inconclusive: 9.35 µM [falling, partial curve]

Copied from the list:
Cc1ccc(F)c(NC(=O)Nc2ccc(-c3cccc4[nH]nc(N)c34)cc2)c1 | Potency: inconclusive: 29.6 µM [falling, single point]
COc1ccc(-c2oc3cc(OC)ccc3c2C(=O)c2ccc(C#N)cc2)cc1 | Potency: inconclusive: 9.35 µM [falling, full curve]
O=C(NOCC1CC1)c1ccc(F)c(F)c1Nc1ccc(I)cc1Cl | Potency: inconclusive: 7.43 µM [falling, partial curve]
